# Data taken from patent US20120130146A1, “CONTINUOUS ADMINISTRATION OF CILENGITIDE IN CANCER TREATMENTS” (Merck Patent GmbH, priority 2009, published 2012).
# Further values from the same series stand in other lists.
# Experiment: Continuous infusion study pharmacokinetics (plasma)
# Type: in vivo, human
# Conditions: Rate 1 mg/h, individual subjects, listed as EMD 121974
# Experimental: Patients with solid tumors received a continuous infusion of 1 mg/h, 2 mg/h, 4 mg/h, 8 mg/h or 12 mg/h. with a weekly change of infusion bag.
# Blood samples were taken on Day 1 (first dose) at pre-dose and 2 h after start of infusion and then weekly just before change of infusion bag and 2 hours thereafter for the first 4 weeks.
# The following pharmacokinetic parameters were derived at Merck KGaA. Darmstadt, Germany, by mathematical methods using Kinetica Version 4.1.1.
# CL the total body clearance of EMD 121974 from plasma Css plasma concentration at steady state ke elimination rate constant Rate infusion rate t1/2, half life V Volume of distribution
# Css, the plasma concentration at steady state, has been estimated by the arithmetic mean of all concentration values from time point 168 h to 506 h per patient.
# From Css and t1/2 the PK parameters CL, ke and V were calculated as follows: […]
structure (smiles),measurement,setting,value
"CC(C)[C@H]1C(=O)N[C@@H](CCCN=C(N)N)C(=O)NCC(=O)N[C@@H](CC(=O)O)C(=O)N[C@H](Cc2ccccc2)C(=O)N1C [Cilengitide, cyclo-(Arg-Gly-Asp-DPhe-NMeVal)]",EMD 121974 Concentrations,2 h,35.40 ng/mL
same,EMD 121974 Concentrations,168 h,72.20 ng/mL
same,EMD 121974 Concentrations,170 h,33.40 ng/mL
same,EMD 121974 Concentrations,336 h,130.00 ng/mL
same,EMD 121974 Concentrations,338 h,97.90 ng/mL
